The inconclusive results got no clear call from the source; some entries with a clear call stand among them for comparison. For some assays here: Potencies beside an inconclusive call are fits to weak or partial responses and may not hold up. Calls of active or inactive are those of the source. Unless noted, the call rests on the fitted dose curve; in most records, active means well fitted curve in the direction sought with a large enough effect; inconclusive means small, poorly fitted or top-dose-only effect, or another doubt; inactive means no such curve, though single readings can be large; an effect the other way counts as inactive or inconclusive.
Assays:
[1] = Quantitative highthroughput screen to assess conditional lethalithy of P12 Ichikawa cells grown in RPMI1640 with dialyzed fetal bovine serum (RPMI+ds) (AID 1963880); settings: Potency: P12-Ichikawa viability; further: nearly all actives have a fitted effect of over 35% in size
Procedure, shortened: (§1)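 Each medium arm—HPLM with 10% dialyzed FBS, or RPMI1640 with 5 mM glucose and 10% untreated or dialyzed FBS—was screened against an 11-point, 3-fold compound titration for 48 h at 37 °C, with CellTiter-Glo luminescence as endpoint.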

Chains of the proteins cited; added tags and fusions are not shown. Lines headed by an entry give the natural chain unless they say otherwise; changes in a name come on top.
UniProt Q8JUX6: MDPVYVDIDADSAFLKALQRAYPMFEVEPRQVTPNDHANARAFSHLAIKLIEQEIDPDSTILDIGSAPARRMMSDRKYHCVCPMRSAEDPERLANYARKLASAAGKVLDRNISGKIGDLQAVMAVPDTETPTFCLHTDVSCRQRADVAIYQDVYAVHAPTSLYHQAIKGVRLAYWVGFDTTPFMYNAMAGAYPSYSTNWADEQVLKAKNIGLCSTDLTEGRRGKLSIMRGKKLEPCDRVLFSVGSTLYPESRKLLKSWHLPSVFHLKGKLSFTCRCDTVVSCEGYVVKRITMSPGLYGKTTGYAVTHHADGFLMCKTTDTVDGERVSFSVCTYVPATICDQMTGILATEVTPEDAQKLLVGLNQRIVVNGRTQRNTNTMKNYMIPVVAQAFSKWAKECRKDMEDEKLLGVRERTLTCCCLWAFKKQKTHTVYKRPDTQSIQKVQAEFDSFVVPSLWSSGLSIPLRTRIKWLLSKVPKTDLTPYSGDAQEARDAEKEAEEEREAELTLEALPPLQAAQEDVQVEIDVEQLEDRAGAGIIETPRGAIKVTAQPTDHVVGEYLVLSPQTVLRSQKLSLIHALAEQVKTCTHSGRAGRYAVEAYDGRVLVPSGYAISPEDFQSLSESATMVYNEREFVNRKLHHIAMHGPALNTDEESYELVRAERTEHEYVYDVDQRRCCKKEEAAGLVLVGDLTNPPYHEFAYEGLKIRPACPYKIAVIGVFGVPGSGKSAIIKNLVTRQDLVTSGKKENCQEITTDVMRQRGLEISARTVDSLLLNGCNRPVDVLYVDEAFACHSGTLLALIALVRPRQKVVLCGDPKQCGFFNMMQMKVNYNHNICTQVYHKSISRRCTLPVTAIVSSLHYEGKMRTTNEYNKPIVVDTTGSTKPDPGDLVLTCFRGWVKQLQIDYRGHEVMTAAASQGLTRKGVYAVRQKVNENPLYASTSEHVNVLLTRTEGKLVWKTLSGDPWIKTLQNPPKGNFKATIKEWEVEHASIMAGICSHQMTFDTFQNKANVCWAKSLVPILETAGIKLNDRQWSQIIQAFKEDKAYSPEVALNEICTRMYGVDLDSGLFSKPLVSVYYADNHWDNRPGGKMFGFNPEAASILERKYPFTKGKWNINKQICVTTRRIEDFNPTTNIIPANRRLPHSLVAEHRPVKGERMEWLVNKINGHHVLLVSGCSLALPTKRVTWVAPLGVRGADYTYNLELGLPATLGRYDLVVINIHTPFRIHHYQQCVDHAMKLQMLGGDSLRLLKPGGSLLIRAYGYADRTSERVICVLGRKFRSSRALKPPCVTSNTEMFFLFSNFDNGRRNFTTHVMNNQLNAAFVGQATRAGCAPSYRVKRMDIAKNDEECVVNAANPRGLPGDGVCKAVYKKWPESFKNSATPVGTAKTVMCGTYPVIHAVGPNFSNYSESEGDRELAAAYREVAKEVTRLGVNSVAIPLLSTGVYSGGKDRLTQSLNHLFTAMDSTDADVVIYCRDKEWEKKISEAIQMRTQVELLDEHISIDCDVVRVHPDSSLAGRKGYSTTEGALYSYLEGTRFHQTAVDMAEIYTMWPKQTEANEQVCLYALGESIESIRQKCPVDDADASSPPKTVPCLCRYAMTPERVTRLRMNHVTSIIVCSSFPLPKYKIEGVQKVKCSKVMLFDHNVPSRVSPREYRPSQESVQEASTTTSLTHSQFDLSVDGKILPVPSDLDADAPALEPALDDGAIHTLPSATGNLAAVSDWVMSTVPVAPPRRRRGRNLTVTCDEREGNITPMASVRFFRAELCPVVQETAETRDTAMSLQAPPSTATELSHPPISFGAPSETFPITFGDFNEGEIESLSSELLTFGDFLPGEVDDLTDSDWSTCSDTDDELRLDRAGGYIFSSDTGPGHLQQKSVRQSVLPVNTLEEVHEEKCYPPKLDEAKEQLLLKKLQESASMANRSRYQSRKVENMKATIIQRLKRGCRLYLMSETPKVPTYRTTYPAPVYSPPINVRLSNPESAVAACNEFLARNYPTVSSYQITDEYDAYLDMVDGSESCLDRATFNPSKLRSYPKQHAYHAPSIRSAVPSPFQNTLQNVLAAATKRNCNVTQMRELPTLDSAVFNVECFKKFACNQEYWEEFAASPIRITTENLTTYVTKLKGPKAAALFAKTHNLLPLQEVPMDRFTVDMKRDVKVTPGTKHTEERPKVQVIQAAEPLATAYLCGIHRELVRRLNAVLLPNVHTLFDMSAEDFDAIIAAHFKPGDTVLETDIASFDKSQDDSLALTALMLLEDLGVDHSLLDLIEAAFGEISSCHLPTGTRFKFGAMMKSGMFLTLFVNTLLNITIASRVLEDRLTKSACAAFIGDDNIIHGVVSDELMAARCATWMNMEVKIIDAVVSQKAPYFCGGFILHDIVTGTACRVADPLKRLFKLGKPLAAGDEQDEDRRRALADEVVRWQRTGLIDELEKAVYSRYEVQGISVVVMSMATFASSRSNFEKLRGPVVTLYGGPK
UniProt P00784: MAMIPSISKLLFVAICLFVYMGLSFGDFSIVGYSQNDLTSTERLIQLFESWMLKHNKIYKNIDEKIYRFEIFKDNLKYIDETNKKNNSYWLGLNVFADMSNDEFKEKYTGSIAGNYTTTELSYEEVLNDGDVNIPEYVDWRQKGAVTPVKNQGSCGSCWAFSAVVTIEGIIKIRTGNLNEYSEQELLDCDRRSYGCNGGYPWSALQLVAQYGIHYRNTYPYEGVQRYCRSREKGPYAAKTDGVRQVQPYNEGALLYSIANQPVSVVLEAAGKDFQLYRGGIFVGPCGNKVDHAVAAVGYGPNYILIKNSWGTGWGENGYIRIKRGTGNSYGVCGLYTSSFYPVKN

[2] = Quantitative highthroughput screen to assess conditional lethalithy of SEM cells grown in Human Plasma-Like Medium with dialyzed fetal bovine serum (HPLM+ds) (AID 1963882); further: potency means the concentration at half of the fitted maximal effect; nearly all actives have a fitted effect of over 35% in size
Procedure, shortened: as §1

[3] = Quantitative highthroughput screen to assess conditional lethalithy of SEM cells grown in RPMI1640 with dialyzed fetal bovine serum (RPMI+ds) (AID 1963884); further: potency means the concentration at half of the fitted maximal effect; nearly all actives have a fitted effect of over 35% in size
Procedure, shortened: as §1

[4] = Quantitative highthroughput screen to assess conditional lethalithy of NOMO1 cells grown in Human Plasma-Like Medium with dialyzed fetal bovine serum (HPLM+ds) (AID 1963878); further: nearly all actives have a fitted effect of over 35% in size; further: potency means the concentration at half of the fitted maximal effect
Procedure, shortened: as §1

[5] = Quantitative highthroughput screen to assess conditional lethalithy of P12 Ichikawa cells grown in RPMI1640 with untreated serum (RPMI+s) (AID 1963881); settings: Potency: viability
Procedure, shortened: as §1

[6] = Quantitative highthroughput screen to assess conditional lethalithy of SEM cells grown in RPMI1640 with unreated serum (RPMI+s) (AID 1963883)
Procedure, shortened: as §1

[7] = Cellular viability qHTS for adrenocortical cancer (ACC) cell line SW-13 (AID 1963989); settings: SW-13 ACC cells viability, CellTiter-Glo, 48 h; activity (max response): hits give low values; further: potency means the concentration at half of the fitted maximal effect; nearly all actives have a fitted effect of over 65% in size
Procedure, shortened: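 SW-13 cells in ITS-supplemented serum-free DMEM were plated overnight, then exposed for 48 h at 37C to compound titrations (up to 46 uM final). Viability was read by CellTiter-Glo luminescence; four-parameter logistic fits gave IC50 and efficacy.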

[8] = Quantitative highthroughput screen to assess conditional lethalithy of P12 Ichikawa cells grown in Human Plasma-Like Medium with dialyzed fetal bovine serum (HPLM+ds) (AID 1963879); settings: Potency: viability
Procedure, shortened: as §1

[9] = biological target: Polyprotein P1234 (Chikungunya virus (strain S27-African prototype)) (UniProt Q8JUX6); assay: Selectivity profile for inhibitors of NSP2Pro chikungunya virus (CHIKV): Full length NSP2 enzyme counterscreen (CHIKV-NSP2) (AID 1964101; calls by dose curve; further: potency means the concentration at half of the fitted maximal effect; nearly all actives have a fitted effect of over 65% in size); settings: Full-length CHIKV NSP2 protease enzymatic counterscreen; series mostly up to 50.7 µM
[10] = biological target: Papain (Carica papaya) (UniProt P00784); assay: Selectivity profile for inhibitors of NSP2Pro chikungunya virus (CHIKV): Papain Counterscreen (AID 1964104; calls by dose curve; further: potency means the concentration at half of the fitted maximal effect)

## CC(O)=C(C#N)C(=O)Nc1cc(Br)ccc1Br
[1]
  Potency: inactive
[2]
  Potency: inconclusive: 11.8 µM [cytotoxic, single point]
[3]
  Potency: inconclusive: 10.5 µM [cytotoxic, single point]

## C[C@@H]1CC[C@@]2(OC1)O[C@H]1C[C@H]3[C@@H]4CC=C5C[C@@H](O[C@@H]6O[C@H](CO)[C@@H](O[C@@H]7O[C@@H](C)[C@H](O)[C@@H](O)[C@@H]7O)[C@H](O)[C@@H]6O[C@@H]6O[C@@H](C)[C@H](O)[C@@H](O)[C@@H]6O)CC[C@]5(C)[C@@H]4CC[C@]3(C)[C@@H]1[C@H]2C
[4]
  Potency: inconclusive: 29.6 µM [cytotoxic, single point]
[5]
  Potency: inconclusive: 33.2 µM [cytotoxic, single point]
[3]
  Potency: active: 14.8 µM

## Cc1nc(-c2ccc(-c3ccc(C(=O)N4CCc5cc6c(cc54)C4(CCN(C)CC4)CO6)cc3)c(C)c2)no1
[4]
  Potency: inactive
[1]
  Potency: inactive

## CC(=CCCC1=CCC(C2=CC(=O)OC2O)OC1O)CCC1=C(C)CCCC1(C)C (configuration not stated)
[6]
  Potency: inconclusive: 2.09 µM [cytotoxic, partial curve, poor fit]

## c1ccc2c(c1)Sc1ccccc1N2CC1CN2CCC1CC2 (configuration not stated)
[7]
  Potency: inconclusive: 29.1 µM [cytotoxic, single point]

## C[C@](O)(CS(=O)(=O)c1ccc(F)cc1)C(=O)Nc1ccc(C#N)c(C(F)(F)F)c1
[1]
  Potency: inactive

## CC1=C(O)C(=O)C=C2C1=CC=C1[C@@]2(C)CC[C@@]2(C)[C@@H]3C[C@](C)(C(=O)O)CC[C@]3(C)CC[C@]12C
[4]
  Potency: active: 2.96 µM
[8]
  Potency: active: 5.9 µM
[5]
  Potency: active: 2.96 µM
[7]
  Potency: active: 4.47 µM
[9]
  Potency: active: 16.3 µM
[10]
  Potency: inconclusive: 20.6 µM [inhibitor, partial curve]

From PubChem BioAssay (NCATS)
